Measurements taken from patent US20200277375A1.

B1: A-D5 in human IgG1null format (antibody, V domains shown)
VH: EVQLVQSGAEVKKPGESLKISCKGSGYTFTNYYIFWVRQMPGKGLEWMGIINPVDGDTNYNPSFQGQVTISADKSISTAYLQWSSLKASDTAMYYCARGGYTMDRWGQGTLVTVSS
VL: DIVMTQSPLSLPVTPGEPASISCRSSQSLLHSNGYTYLHWYLQKPGQSPQLLIYKVSNRLSGVPDRFSGSGSGTDFTLKISRVEAEDVGVYYCFQNTHTPRTFGQGTKVEIK
B2: G-B6 in human IgG1null format (antibody, V domains shown)
VH: B1 VH with T28S, M48I, I50D, D55N, Y60F, N61S, R105K
VL: B1 VL with L30V, V56G, N58Y, L60A, F94S, H98Q
B3: D-H3 in human IgG1null format (antibody, V domains shown)
VH: B1 VH with T28S, I50D, D55N, N61S, M103P, R105Y
VL: B1 VL with T36N, V56G, L60F, F94S, T97L, T99V
B4: mVH/mVL (chimeric VxP037) in human IgG1null format (antibody, V domains shown)
VH: EVQLQQFGAELVKPGASMKLSCKASGYTFTNYYVFWVKQRPGQGLEWIGDINPVNGDTNFNEKFKNKATLTVDKSSTTTYLQLSSLTSEDSAVYYCTRGGYTMDYWGQGTLVTVSS
VL: DVVMTQTPLSLSVSLGDQASISCRSSQSLVHSNGNTYLHWYLQKPGQSPKLLIYKVSYRFSGVPDRFSGSGSGTDFTLKISRVEAEDLGVYFCSQNTHVPRTFGQGTKVEIK
B5: A-D5.4 in human IgG1null format (antibody, V domains shown)
VH: B1 VH
VL: B1 VL with T36N
B6: A-D5.16 in human IgG1null format (antibody, V domains shown)
VH: B1 VH with T28S, N59R, N61S
VL: B1 VL with N33A, T36N

Experiments:
Insulin [1] = assay: development risk ELISA on coated Insulin, FIG. 8A
Insulin [2] = assay: development risk ELISA on coated Insulin, FIG. 14A

Row | Binder | binding (Insulin [1]) | binding (Insulin [2])
1 | B1 | no binding | –
2 | B2 | no binding | –
3 | B3 | no binding | –
4 | B4 | no binding | –
5 | B5 | – | no binding
6 | B6 | – | no binding

Where a chain is given by its changes, count along the chain named. These are yes or no findings as the source states them, for the method shown.
